Measured values reported in publication PMC11405865.
These are yes or no findings as the source states them, for the method shown. In cells and extracts the contact can be indirect. Some binding calls cover weakened binding; strength is not graded here. Tags and fused reporters may be left off the sequences shown.

What was measured:
ELT-3::FLAG (C. elegans) = target: T1, ELT-3::FLAG (C. elegans) (UniProt B7WN96); experiment: co-IP; HEK293T cells co-expressing the tagged proteins, lysed 48 h post transfection; supernatant incubated with Anti-GFP or Anti-DYKDDDDK affinity beads 2-4 h at 4 °C; washed with lysis buffer and wash buffer (20 mM Tris, 150 mM KCl, 0.5% NP-40, 1 mM EDTA, 10% glycerol, pH 7.5); western blot for GFP and FLAG
T1 sequence: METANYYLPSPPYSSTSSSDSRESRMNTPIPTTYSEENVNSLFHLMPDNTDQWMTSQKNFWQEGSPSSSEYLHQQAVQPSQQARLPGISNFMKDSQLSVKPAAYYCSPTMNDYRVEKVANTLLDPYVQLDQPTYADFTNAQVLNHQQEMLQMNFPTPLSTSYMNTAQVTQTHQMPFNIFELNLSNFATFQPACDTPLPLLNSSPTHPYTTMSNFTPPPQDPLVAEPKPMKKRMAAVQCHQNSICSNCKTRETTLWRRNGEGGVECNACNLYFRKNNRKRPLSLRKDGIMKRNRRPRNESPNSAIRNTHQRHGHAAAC

PQM-1::FLAG (C. elegans) = target: T2, PQM-1::FLAG (C. elegans) (UniProt G5EFY7); experiment: as above
T2 sequence: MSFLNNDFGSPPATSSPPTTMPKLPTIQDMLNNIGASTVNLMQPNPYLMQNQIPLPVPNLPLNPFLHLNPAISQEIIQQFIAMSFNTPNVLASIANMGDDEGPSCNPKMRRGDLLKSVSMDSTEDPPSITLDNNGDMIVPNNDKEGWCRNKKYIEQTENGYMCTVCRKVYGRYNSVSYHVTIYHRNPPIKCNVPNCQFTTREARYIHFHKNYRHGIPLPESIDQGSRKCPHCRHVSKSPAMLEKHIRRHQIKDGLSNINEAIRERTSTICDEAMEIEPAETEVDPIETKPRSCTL

binding (ELT-3::FLAG (C. elegans)): binds
binding (PQM-1::FLAG (C. elegans)): binds
B1: GFP::HMP-2 (protein, UniProt O44326 1-678)
chain: MLLHSTNSYSIFTDHEVETRTSRIRSAMFPDWIPPTSAAEATNSTTSIVEMMQMPTQQLKQSVMDLLTYEGSNDMSGLSLPDLVKLMCDHDESVVARAVHRAYMLSREDPNFFNAPGFDHRSFVEALMAASKSSNVNVRRNAIGALSHMSEQRGGPLLIFRSGGLAEIIRMLYDSLESVVHYAVTTLRNLLMHVSDSRAQARALNAVEALTPHLHKTNPKLLAQVADGLYFLLIDDAPSKITFLSLLGPQILVSILREYSDHRKLIYTVVRCIRSLSVCPSNKPALISLGCLPALYVELCTAKDERSQTAILVAMRNLSDSATNEENLTQLIIKLLEIIRVANDGMTACACGTLSNLTCNNTRNKQTVCSHGGIDALVTAIRRLPEVEEVTEPALCALRHCTARHSLAEEAQSELRFCQAFPVILDQLETLRTPVIKAALGVIRNSALLQTNLIELTQEQTANGHTAVSLTMDILRRAITAIEENPDIAVDGVPMWGVIEGAVSALHQLANHPAVAAACCDDIGQVGNPECPPFLDLLHRLLAHPRLGSMDDEVLEREILGLLYQLSKRPDGARAVESTGVSALLMESRGSQYKSVVTYANGVLSNLKRGDSAAIMNMSNSYDYEMSGSAADWQRDGLERELFAEMYPTNDGGHSESINMALNNSQMRPNHNWYDTDL
